Assay results published in PubChem BioAssay AID504467 (National Center for Advancing Translational Sciences (NCATS), 2011).
Values joined by “and” are separate entries in the source; they are usually repeats but may differ in a detail not shown here. Identical values can stand only once. Among all 330,000 compounds or so, about 7,700 (2.3%) were called active. Inconclusive results, whose numbers are uncertain, are shown with a selection of clear calls. Calls follow the shape of the dose curve; as a rule, active = well fitted inhibition curve with a large enough effect; inconclusive = small, poorly fitted or top-dose-only effect, or effect the other way; inactive = flat fitted curve, though single readings scatter. A potency beside an inconclusive call is a rough fit, not a confirmed value.

Assay: qHTS screen for small molecules that inhibit ELG1-dependent DNA repair in human embryonic kidney (HEK293T) cells expressing luciferase-tagged ELG1; also: nearly all actives have a fitted effect of over 55% in size
Settings: HEK293T ELG1-luciferase reporter, luminescence, 16 h, DNA damage induced by 5-fluorouridine; series mostly up to 46.1 µM
How it was run: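 HEK293T cells expressing luciferase-tagged ELG1 (2,000/well) received 5-Fluorouridine plus compound or DMSO for 16 hr at 37 °C. Luciferase was read by ONE-Glo luminescence after 30 min at room temperature.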
Potency is read from the fitted curve at half-maximal effect.

Row | Compound | Potency
1 | Cc1cccn2cc(-c3cc4ccccc4oc3=O)nc12 | inconclusive: 0.164 µM [activator, full curve]
2 | COc1ccccc1CN1CC(C(=O)NCc2cc(C)on2)CCC1=O (configuration not stated) | inconclusive: 25.9 µM [activator, partial curve, poor fit]
3 | c1ccc2c(c1)ncn2-c1ncnc2sc3c(c12)CCCC3 | inconclusive: 17.8 µM [inhibitor, partial curve, poor fit]
4 | CCn1c(=S)sc2c(=O)n(-c3ccccc3)c(SCC(=O)NCc3ccco3)nc21 | inactive
5 | COc1cc(-c2nnn(CC(=O)NCc3ccccc3)n2)cc(OC)c1OC | inconclusive: 29.1 µM [inhibitor, single point]
6 | C[C@H]1COC(=O)[C@@H](Cc2ccc(F)cc2)C/C=C\C[C@@H](CC(=O)N[C@@H](CO)Cc2ccccc2)C(=O)N1 | inconclusive: 23.1 µM [inhibitor, partial curve]
7 | O=C(COC(=O)COc1ccccc1)Nc1ncc(Cl)cc1Cl | inconclusive: 18.3 µM [activator, partial curve, poor fit]
8 | COc1ccccc1/C=C1\SC(=S)N(C(C(=O)O)c2ccccc2)C1=O (configuration not stated) | inconclusive: 0.461 µM [activator, partial curve, poor fit]
9 | CC(C)c1ccc(N=C2N=C(N)c3ccccc32)cc1 | inconclusive: 5.17 µM [activator, partial curve]
10 | CCOC(=O)CCCN1CC(O)=C(c2nc3ccccc3s2)C1=N | inconclusive: 0.103 µM [inhibitor, partial curve, poor fit]
11 | O=C(c1ccc(F)cc1)N1CCC(C(=O)N2CCN(Cc3ccc4c(c3)OCO4)CC2)CC1 | inactive
12 | COc1cc(OC)cc(-c2cc3nc(C)c(CCC(=O)NC(C)CCc4ccco4)c(C)n3n2)c1 (configuration not stated) | active: 12.6 µM
13 | CCCn1c(SCC(=O)Nc2nnc(CC)s2)nc2c1c(=O)n(C)c(=O)n2C | inactive
14 | CCC(=O)Nc1sc(Cc2ccc3c(c2)OCO3)c(C)c1C(N)=O | inconclusive: 23.1 µM [inhibitor, single point]
15 | NC(=O)c1c(NC(=O)CSc2nnc(-c3ccccc3)n2CC2CCCO2)sc2c1CCC2 (configuration not stated) | inconclusive: 29.1 µM [inhibitor, single point]
16 | COc1ccc(-c2csc(N(CCCN(C)C)C(=O)c3ccc(C(C)(C)C)cc3)n2)cc1 | inconclusive: 1.16 µM [inhibitor, partial curve, poor fit]
17 | CC(C)(C)c1ccc(C(=O)NCC(=O)OCC(=O)N2CCN(S(=O)(=O)c3ccc(Cl)cc3)CC2)cc1 | inconclusive: 14.6 µM [activator, partial curve]
18 | COc1cc2c(c(OC)c1OC)C(=O)CC2 | inactive
19 | O=C(CSc1ccc2ccccc2n1)NC1CC1 | inconclusive: 13 µM [activator, partial curve, poor fit]
20 | Cc1ccc(N2C(=O)CC(N3CCN(C)CC3)C2=O)cc1 (configuration not stated) | inactive
21 | COc1ccc(C2=NOC(Cn3nc(-c4ccccc4)cc3C(=O)NCc3cccs3)C2)cc1 (configuration not stated) | active: 11.6 µM
22 | Cc1ccc(C(=O)N2CCCC(CCC(=O)NCc3ccc(F)c(F)c3)C2)cn1 (configuration not stated) | inconclusive: 1.16 µM [activator, partial curve, poor fit]
23 | COc1ccc(NC(=O)Cn2nc(C(=O)O)c3ccccc3c2=O)cc1Cl | inconclusive: 16.4 µM [activator, partial curve, poor fit]

Row | Compound | Potency
24 | CC(C)CC(=O)NCc1ccc2[nH]c3c(c2c1)CCCC3 | inactive
25 | O=C(Cc1ccccc1)Nc1ccc(NC(=O)c2ccco2)nc1 | inconclusive: 7.31 µM [activator, partial curve]
26 | Cc1cc(Br)ccc1OCC(=O)NNC(=O)C(=O)Nc1ccccc1 | inactive
27 | Cc1ccc(CNC(=O)CSc2nc3n[nH]c(C)c3c(=N)n2-c2cccc(C)c2)cc1 | inconclusive: 18.4 µM [inhibitor, single point]
28 | COc1ccc(CCNC(=O)c2cccc(Br)c2)cc1OC | inactive
29 | CCN1CCN(c2ccc(NC(=O)CCc3c(C)nc4c(-c5ccccc5)c(C)nn4c3C)cc2)CC1 | inconclusive: 23.1 µM [inhibitor, single point]
30 | CCOC(=O)c1ccc(NC(=S)NCCCn2ccnc2)cc1 | inconclusive: 18.3 µM [activator, partial curve, poor fit]
31 | O=C(Nc1ccc(S(=O)(=O)N2CCCCC2)cc1)c1ccncc1 | inconclusive: 14.6 µM [inhibitor, partial curve]
32 | COc1ccc(N(CC(=O)N2CCN(c3ccc(F)cc3)CC2)S(=O)(=O)c2c(C)n[nH]c2C)cc1 | inconclusive: 29.1 µM [inhibitor, partial curve, poor fit]
33 | CC(C)(C)c1cc(/C=N/O)cc(C(C)(C)C)c1O | inconclusive: 11.6 µM [inhibitor, partial curve]
34 | O=C(O)c1ccc2c(c1)C(=O)N(c1cccc(-c3nc4ccccc4s3)c1)C2=O | inconclusive: 20.6 µM [activator, partial curve]
35 | CC(=O)c1cccc(NS(=O)(=O)c2ccc(N/C=C/C(=O)c3ccc(F)cc3)cc2)c1 | inconclusive: 16.4 µM [inhibitor, partial curve]
36 | CCN1C(=O)CC(c2ccccc2)CC1=O | inactive
37 | CC(Sc1nnnn1-c1ccc(O)cc1)C(=O)NC1CCCCC1C (configuration not stated) | inactive
38 | O=C(Nc1ccccc1C(=O)N/N=C/c1ccncc1)c1ccccc1 | inconclusive: 7.3 µM [activator, partial curve]
39 | O=C(N/N=C/C1=Cc2ccccc2OC1)c1ccncc1 | inactive
40 | COc1cccc(OC)c1/C(O)=C(\C#N)c1nc2ccccc2[nH]1 | inactive
41 | COc1ccc(C(=O)COC(=O)CCN2C(=O)C3CC=CCC3C2=O)c(OC)c1 (configuration not stated) | inconclusive: 29.1 µM [activator, partial curve, poor fit]
42 | COc1ccc(N(CC(=O)NCCC2=CCCCC2)S(=O)(=O)c2ccccc2)cc1 | inconclusive: 18.3 µM [inhibitor, partial curve, poor fit]
43 | O=c1[nH]cnc2scc(C3COc4ccccc4O3)c12 (configuration not stated) | inconclusive: 10.3 µM [activator, partial curve]
44 | NC(=S)N/N=C/c1ccccc1OCCSc1ccc(Cl)cc1 | inconclusive: 23.1 µM [inhibitor, single point]
45 | Cc1oc2cc3oc(=O)cc(C)c3cc2c1C | inconclusive: 18.3 µM [activator, partial curve]
46 | CN(C)c1nc2c(c(=O)[nH]c(=O)n2C)n1Cc1ccc(F)cc1 | inactive

Row | Compound | Potency
47 | Cc1cc(Cl)c(C(=O)Nc2cccc(C(F)(F)F)c2)c(C)n1 | inconclusive: 5.8 µM [inhibitor, full curve, poor fit]
48 | Cc1ccccc1OCC(=O)OCC(=O)NCc1cccs1 | inactive
49 | CCOc1ccc2nc(NC(=O)CN3CCC(n4nnc5cc(F)ccc54)CC3)sc2c1 | active: 9.2 µM
50 | O=C(CNC(=O)Cc1ccccc1)NCC(=O)N1CCCCC1 | inactive
51 | COc1ccc2[nH]c(C(=O)N(C)Cc3ccccc3)c(C)c2c1 | inconclusive: 32.6 µM [inhibitor, single point]
52 | COc1ccc(OCc2cc(C(=O)N(C)CCC3CCOCC3)no2)c(Cl)c1 | inconclusive: 20.6 µM [activator, partial curve]
53 | C/C(=N\OC(=O)c1ccc(Cl)cc1)c1nccs1 | inactive
54 | Cc1c(C(=O)NCc2ccccn2)oc2c(Cl)cccc12 | inconclusive: 18.3 µM [activator, partial curve, poor fit]
55 | O=C(Nc1nc(=O)c2ccccc2s1)c1ccc(Cl)cc1 | inconclusive: 10.3 µM [activator, partial curve]
56 | Cc1ccc(C(=O)Nc2cccc(C(=O)O)c2)cc1S(=O)(=O)N1CCOCC1 | inconclusive: 9.2 µM [activator, partial curve]
57 | O=C(N=C1SC2CS(=O)(=O)CC2N1CCc1ccc(F)cc1)C1CCCCC1 (configuration not stated) | inactive
58 | O=C(Nc1cccnc1)c1sc(Nc2ccccc2F)nc1-c1ccccc1 | inconclusive: 29.1 µM [activator, single point]
59 | O=C(NCc1ccc(Cl)cc1)c1cnn2ccccc12 | inconclusive: 2.31 µM [activator, partial curve]
60 | CC1(C)CC(=O)C(N=Nc2ccc(OC(F)F)cc2)=C(O)C1 | inconclusive: 29.1 µM [activator, single point]
61 | N=C(N)SCc1nc2ccccc2c(=O)n1-c1ccccc1 | inconclusive: 16.4 µM [activator, partial curve] and inconclusive: 18.4 µM [activator, partial curve]
62 | CCOC(=O)c1cnc2ccc(OC)cc2c1Nc1ccc2c(c1)OCCO2 | inconclusive: 29.1 µM [inhibitor, single point]
63 | Cc1cccc(NC(=O)CSc2nnc(NC(=O)c3ccco3)s2)c1 | inconclusive: 25.9 µM [activator, single point]
64 | O=C(N/N=C/c1cccs1)c1n[nH]c2c1CCC2 | inconclusive: 0.651 µM [activator, full curve]
65 | O=S(=O)(Nc1ccc(-c2nc3cccnc3s2)cc1)c1cccs1 | inconclusive: 29.1 µM [activator, single point]
66 | C=CCOC(=O)C1=C(C)NC(C)=C(C(=O)OCC=C)C1c1cccs1 | inactive
67 | Cn1cc(/C=N/NC(=O)c2cccc([N+](=O)[O-])c2)c2ccccc21 | inconclusive: 29.1 µM [activator, single point]
